Values from PubChem BioAssay AID743121 (NCATS, 2013)

Test: 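Genes whose silencing strengthens cell killing by camptothecin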 (primary screen)
Cell system: MDA-MB-231 cells, a human breast cancer line
Reagent: single siRNA against human genes, 20 nM siRNA (0.8 pmol per well)
Time to read-out: 120 h (drug added 48 h after transfection, read 72 h later)
Challenge: camptothecin 20 nM (about EC30) for 72 h; vehicle 0.1% DMSO in parallel plates
Measured: 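CellTiter-Glo ATP signal, scaled to control siRNA as percent viability; sensitisation given as log2 of untreated divided by camptothecin-treated viability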
Scale: log2 vehicle/camptothecin viability: higher = stronger sensitisation to camptothecin; viability with camptothecin and viability without drug: higher = more viable cells
Call rule: 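Active genes have an RSA gene-level p-value below 0.001, computed from the ratios of their separate siRNAs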
Shown is an unselected part of about 26,000 deposited reagents. 167 of all reagents (0.63%) were called active. 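Calls are per gene from RSA p-values that are not deposited; an individual active-marked siRNA can sensitise only weakly.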 Reagents against one gene are numbered here. No sequences are given here.

no.	gene	reagent	log2 vehicle/camptothecin viability	viability with camptothecin (% of control)	viability without drug (% of control)	Outcome
1	ARHGEF17 (GeneID 9828)	1	-0.231	85.2	72.6	inactive
2	ARHGEF17 (GeneID 9828)	2	-0.344	69.4	54.7	inactive
3	ARHGEF17 (GeneID 9828)	3	-0.599	33	21.8	inactive
4	PSMD7 (GeneID 5713)	1	-0.389	7.75	5.91	inactive
5	PSMD7 (GeneID 5713)	2	-0.446	19.1	14	inactive
6	PSMD7 (GeneID 5713)	3	-0.282	8.53	7.02	inactive
7	CYP2C9 (GeneID 1559)	1	0.367	68.3	88.1	inactive
8	CYP2C9 (GeneID 1559)	2	0.152	84.5	93.9	inactive
9	CYP2C9 (GeneID 1559)	3	0.0829	68.6	72.7	inactive
10	FYB1 (GeneID 2533)	1	0.0633	77	80.4	inactive
11	FYB1 (GeneID 2533)	2	0.455	21.8	29.9	inactive
12	FYB1 (GeneID 2533)	3	-0.036	92.9	90.6	inactive
13	FYB1 (GeneID 2533)	4	-0.27	69.5	57.7	inactive
14	HSPA4 (GeneID 3308)	1	-0.0695	69.7	66.4	inactive
15	HSPA4 (GeneID 3308)	2	-0.117	85.8	79.1	inactive
16	HSPA4 (GeneID 3308)	3	0.148	37.4	41.4	inactive
17	HSPA4 (GeneID 3308)	4	-0.314	87.9	70.7	inactive
18	SLC6A16 (GeneID 28968)	1	-0.386	106	80.9	inactive
19	SLC6A16 (GeneID 28968)	2	0.124	77.5	84.5	inactive
20	SLC6A16 (GeneID 28968)	3	0.0514	53.7	55.6	inactive
21	SLC6A16 (GeneID 28968)	4	-0.673	124	77.8	inactive
22	SAT1 (GeneID 6303)	1	0.0635	92.6	96.7	inactive
23	SAT1 (GeneID 6303)	2	-0.0799	82.7	78.2	inactive
24	SAT1 (GeneID 6303)	3	-0.149	73.8	66.5	inactive
25	SAT1 (GeneID 6303)	4	-0.147	109	98.5	inactive
26	MUC17 (GeneID 140453)	1	-0.586	16.4	11	inactive
27	MUC17 (GeneID 140453)	2	-0.161	83.8	74.9	inactive
28	MUC17 (GeneID 140453)	3	0.347	82.7	105	inactive
29	MUC17 (GeneID 140453)	4	-0.438	108	79.6	inactive

Quoted from above for reference:
no.	gene	reagent	log2 vehicle/camptothecin viability	viability with camptothecin (% of control)	viability without drug (% of control)	Outcome
15	HSPA4 (GeneID 3308)	2	-0.117	85.8	79.1	inactive
16	HSPA4 (GeneID 3308)	3	0.148	37.4	41.4	inactive
